Results are given in words; binding and its absence hold for the method and conditions named. In cells and extracts the contact can be indirect. Some results given as binding are weak or reduced against the parent protein; the word gives no strength.
T1: NLR family pyrin domain containing 1 (NLRP1), endogenous (human (endogenous in K562 and M-PBMCs)) (UniProt Q9C000)
T1 sequence: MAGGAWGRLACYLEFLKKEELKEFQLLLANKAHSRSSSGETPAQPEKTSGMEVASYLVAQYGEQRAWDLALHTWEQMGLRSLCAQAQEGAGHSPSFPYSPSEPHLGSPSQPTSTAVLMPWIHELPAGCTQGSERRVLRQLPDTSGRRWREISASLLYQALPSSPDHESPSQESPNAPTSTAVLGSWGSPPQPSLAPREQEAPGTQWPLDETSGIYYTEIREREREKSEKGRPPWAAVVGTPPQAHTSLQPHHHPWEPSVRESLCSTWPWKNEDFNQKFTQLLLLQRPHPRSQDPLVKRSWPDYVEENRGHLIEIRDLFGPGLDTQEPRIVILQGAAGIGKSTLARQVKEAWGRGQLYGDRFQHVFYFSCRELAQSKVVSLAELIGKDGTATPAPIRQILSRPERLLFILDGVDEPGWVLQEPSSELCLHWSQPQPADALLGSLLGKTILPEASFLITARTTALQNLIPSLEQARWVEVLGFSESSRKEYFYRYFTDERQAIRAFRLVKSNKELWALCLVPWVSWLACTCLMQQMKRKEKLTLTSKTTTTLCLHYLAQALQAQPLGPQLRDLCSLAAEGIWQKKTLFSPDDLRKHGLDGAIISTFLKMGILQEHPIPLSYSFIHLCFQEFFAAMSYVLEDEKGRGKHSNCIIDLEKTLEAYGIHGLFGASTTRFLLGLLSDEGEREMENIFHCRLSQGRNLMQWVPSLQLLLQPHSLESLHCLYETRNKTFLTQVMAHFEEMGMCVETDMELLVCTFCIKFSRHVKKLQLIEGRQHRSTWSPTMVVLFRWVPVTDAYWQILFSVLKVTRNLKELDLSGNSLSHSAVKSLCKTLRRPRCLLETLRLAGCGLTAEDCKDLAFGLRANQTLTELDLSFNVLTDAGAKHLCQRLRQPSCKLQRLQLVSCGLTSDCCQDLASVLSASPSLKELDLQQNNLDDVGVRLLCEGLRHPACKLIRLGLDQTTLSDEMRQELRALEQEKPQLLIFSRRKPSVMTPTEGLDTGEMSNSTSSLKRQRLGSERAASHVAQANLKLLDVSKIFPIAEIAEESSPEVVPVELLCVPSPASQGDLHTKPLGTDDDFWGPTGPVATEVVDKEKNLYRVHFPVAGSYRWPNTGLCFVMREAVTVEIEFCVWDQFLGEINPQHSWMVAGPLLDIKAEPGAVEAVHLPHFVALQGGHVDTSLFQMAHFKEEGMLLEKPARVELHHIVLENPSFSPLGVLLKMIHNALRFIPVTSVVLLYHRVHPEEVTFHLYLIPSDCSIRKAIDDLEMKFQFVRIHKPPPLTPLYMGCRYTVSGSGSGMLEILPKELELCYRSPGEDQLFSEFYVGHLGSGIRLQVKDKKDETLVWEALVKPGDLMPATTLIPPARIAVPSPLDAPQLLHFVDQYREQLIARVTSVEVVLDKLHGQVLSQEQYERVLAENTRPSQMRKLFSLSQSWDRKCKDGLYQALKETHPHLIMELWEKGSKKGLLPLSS

T2: LRR Binding FLII Interacting Protein 1 (LRRFIP1), endogenous (human (endogenous in K562 and M-PBMCs)) (UniProt Q32MZ4)
T2 sequence: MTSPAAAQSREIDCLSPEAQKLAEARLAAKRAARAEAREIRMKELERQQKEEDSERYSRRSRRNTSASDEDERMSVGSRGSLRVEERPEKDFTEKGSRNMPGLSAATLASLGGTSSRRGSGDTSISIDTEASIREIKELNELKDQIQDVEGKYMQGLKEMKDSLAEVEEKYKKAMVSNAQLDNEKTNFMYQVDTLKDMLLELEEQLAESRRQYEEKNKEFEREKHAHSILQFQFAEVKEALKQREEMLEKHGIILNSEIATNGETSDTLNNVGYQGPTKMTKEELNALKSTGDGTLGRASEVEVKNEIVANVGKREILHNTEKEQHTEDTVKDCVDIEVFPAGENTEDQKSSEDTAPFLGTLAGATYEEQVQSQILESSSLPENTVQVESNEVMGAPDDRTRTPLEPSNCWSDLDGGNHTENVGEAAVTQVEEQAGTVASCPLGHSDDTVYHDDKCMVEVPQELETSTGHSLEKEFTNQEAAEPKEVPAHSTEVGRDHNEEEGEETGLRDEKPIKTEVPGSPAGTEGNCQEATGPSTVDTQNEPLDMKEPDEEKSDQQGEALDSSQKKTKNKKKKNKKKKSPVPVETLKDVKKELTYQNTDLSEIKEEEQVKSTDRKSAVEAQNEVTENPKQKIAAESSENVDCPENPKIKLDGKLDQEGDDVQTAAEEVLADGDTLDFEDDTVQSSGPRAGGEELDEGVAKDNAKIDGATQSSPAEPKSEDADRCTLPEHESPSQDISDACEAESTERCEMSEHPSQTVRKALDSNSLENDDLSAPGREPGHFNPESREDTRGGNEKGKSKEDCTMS

B1: LRR Binding FLII Interacting Protein 1 (LRRFIP1), endogenous (protein, UniProt Q32MZ4 1-808)
chain: MTSPAAAQSREIDCLSPEAQKLAEARLAAKRAARAEAREIRMKELERQQKEEDSERYSRRSRRNTSASDEDERMSVGSRGSLRVEERPEKDFTEKGSRNMPGLSAATLASLGGTSSRRGSGDTSISIDTEASIREIKELNELKDQIQDVEGKYMQGLKEMKDSLAEVEEKYKKAMVSNAQLDNEKTNFMYQVDTLKDMLLELEEQLAESRRQYEEKNKEFEREKHAHSILQFQFAEVKEALKQREEMLEKHGIILNSEIATNGETSDTLNNVGYQGPTKMTKEELNALKSTGDGTLGRASEVEVKNEIVANVGKREILHNTEKEQHTEDTVKDCVDIEVFPAGENTEDQKSSEDTAPFLGTLAGATYEEQVQSQILESSSLPENTVQVESNEVMGAPDDRTRTPLEPSNCWSDLDGGNHTENVGEAAVTQVEEQAGTVASCPLGHSDDTVYHDDKCMVEVPQELETSTGHSLEKEFTNQEAAEPKEVPAHSTEVGRDHNEEEGEETGLRDEKPIKTEVPGSPAGTEGNCQEATGPSTVDTQNEPLDMKEPDEEKSDQQGEALDSSQKKTKNKKKKNKKKKSPVPVETLKDVKKELTYQNTDLSEIKEEEQVKSTDRKSAVEAQNEVTENPKQKIAAESSENVDCPENPKIKLDGKLDQEGDDVQTAAEEVLADGDTLDFEDDTVQSSGPRAGGEELDEGVAKDNAKIDGATQSSPAEPKSEDADRCTLPEHESPSQDISDACEAESTERCEMSEHPSQTVRKALDSNSLENDDLSAPGREPGHFNPESREDTRGGNEKGKSKEDCTMS
B2: NLR family pyrin domain containing 1 (NLRP1), endogenous (protein, UniProt Q9C000 1-1473)
chain: MAGGAWGRLACYLEFLKKEELKEFQLLLANKAHSRSSSGETPAQPEKTSGMEVASYLVAQYGEQRAWDLALHTWEQMGLRSLCAQAQEGAGHSPSFPYSPSEPHLGSPSQPTSTAVLMPWIHELPAGCTQGSERRVLRQLPDTSGRRWREISASLLYQALPSSPDHESPSQESPNAPTSTAVLGSWGSPPQPSLAPREQEAPGTQWPLDETSGIYYTEIREREREKSEKGRPPWAAVVGTPPQAHTSLQPHHHPWEPSVRESLCSTWPWKNEDFNQKFTQLLLLQRPHPRSQDPLVKRSWPDYVEENRGHLIEIRDLFGPGLDTQEPRIVILQGAAGIGKSTLARQVKEAWGRGQLYGDRFQHVFYFSCRELAQSKVVSLAELIGKDGTATPAPIRQILSRPERLLFILDGVDEPGWVLQEPSSELCLHWSQPQPADALLGSLLGKTILPEASFLITARTTALQNLIPSLEQARWVEVLGFSESSRKEYFYRYFTDERQAIRAFRLVKSNKELWALCLVPWVSWLACTCLMQQMKRKEKLTLTSKTTTTLCLHYLAQALQAQPLGPQLRDLCSLAAEGIWQKKTLFSPDDLRKHGLDGAIISTFLKMGILQEHPIPLSYSFIHLCFQEFFAAMSYVLEDEKGRGKHSNCIIDLEKTLEAYGIHGLFGASTTRFLLGLLSDEGEREMENIFHCRLSQGRNLMQWVPSLQLLLQPHSLESLHCLYETRNKTFLTQVMAHFEEMGMCVETDMELLVCTFCIKFSRHVKKLQLIEGRQHRSTWSPTMVVLFRWVPVTDAYWQILFSVLKVTRNLKELDLSGNSLSHSAVKSLCKTLRRPRCLLETLRLAGCGLTAEDCKDLAFGLRANQTLTELDLSFNVLTDAGAKHLCQRLRQPSCKLQRLQLVSCGLTSDCCQDLASVLSASPSLKELDLQQNNLDDVGVRLLCEGLRHPACKLIRLGLDQTTLSDEMRQELRALEQEKPQLLIFSRRKPSVMTPTEGLDTGEMSNSTSSLKRQRLGSERAASHVAQANLKLLDVSKIFPIAEIAEESSPEVVPVELLCVPSPASQGDLHTKPLGTDDDFWGPTGPVATEVVDKEKNLYRVHFPVAGSYRWPNTGLCFVMREAVTVEIEFCVWDQFLGEINPQHSWMVAGPLLDIKAEPGAVEAVHLPHFVALQGGHVDTSLFQMAHFKEEGMLLEKPARVELHHIVLENPSFSPLGVLLKMIHNALRFIPVTSVVLLYHRVHPEEVTFHLYLIPSDCSIRKAIDDLEMKFQFVRIHKPPPLTPLYMGCRYTVSGSGSGMLEILPKELELCYRSPGEDQLFSEFYVGHLGSGIRLQVKDKKDETLVWEALVKPGDLMPATTLIPPARIAVPSPLDAPQLLHFVDQYREQLIARVTSVEVVLDKLHGQVLSQEQYERVLAENTRPSQMRKLFSLSQSWDRKCKDGLYQALKETHPHLIMELWEKGSKKGLLPLSS

How the values were obtained:
[1] = target: T1, NLR family pyrin domain containing 1 (NLRP1), endogenous (human (endogenous in K562 and M-PBMCs)); experiment: co-IP; endogenous proteins immunoprecipitated from K562 cells after erythroid differentiation
[2] = target: T1, NLR family pyrin domain containing 1 (NLRP1), endogenous (human (endogenous in K562 and M-PBMCs)); experiment: co-IP; endogenous proteins in M-PBMCs (mobilized human peripheral blood mononuclear cells)
[3] = target: T1, NLR family pyrin domain containing 1 (NLRP1), endogenous (human (endogenous in K562 and M-PBMCs)); experiment: proximity ligation; Duolink PLA on fixed, saponin-permeabilized K562 cells after erythroid differentiation; endogenous proteins; confocal microscopy
[4] = target: T2, LRR Binding FLII Interacting Protein 1 (LRRFIP1), endogenous (human (endogenous in K562 and M-PBMCs)); experiment: co-IP; endogenous proteins immunoprecipitated from K562 cells after erythroid differentiation

| Binder | binding [1] | binding [2] | binding [3] | binding [4] |
| --- | --- | --- | --- | --- |
| B1 | binds | binds | binds |  |
| B2 |  |  |  | binds |

Source: PMC10565642
